{
  "sequences": {"note": "Chains of the proteins cited; added tags and fusions are not shown. Lines headed by an entry give the natural chain unless they say otherwise; changes in a name come on top.", "UniProt P16266": "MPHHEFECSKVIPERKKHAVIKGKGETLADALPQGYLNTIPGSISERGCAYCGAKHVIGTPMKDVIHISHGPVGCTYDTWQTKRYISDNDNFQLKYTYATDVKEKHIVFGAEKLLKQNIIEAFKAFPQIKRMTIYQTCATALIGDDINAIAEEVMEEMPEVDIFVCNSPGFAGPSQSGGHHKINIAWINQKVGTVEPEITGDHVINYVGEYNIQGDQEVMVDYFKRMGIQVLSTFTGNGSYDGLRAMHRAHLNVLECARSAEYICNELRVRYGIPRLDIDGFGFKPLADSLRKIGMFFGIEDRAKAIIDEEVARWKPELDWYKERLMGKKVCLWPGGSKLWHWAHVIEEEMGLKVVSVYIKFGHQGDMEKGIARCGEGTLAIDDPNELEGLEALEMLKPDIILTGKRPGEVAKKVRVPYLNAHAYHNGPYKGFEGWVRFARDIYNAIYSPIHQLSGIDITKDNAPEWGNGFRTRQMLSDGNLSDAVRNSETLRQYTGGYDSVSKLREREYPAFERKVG", "UniProt P16267": "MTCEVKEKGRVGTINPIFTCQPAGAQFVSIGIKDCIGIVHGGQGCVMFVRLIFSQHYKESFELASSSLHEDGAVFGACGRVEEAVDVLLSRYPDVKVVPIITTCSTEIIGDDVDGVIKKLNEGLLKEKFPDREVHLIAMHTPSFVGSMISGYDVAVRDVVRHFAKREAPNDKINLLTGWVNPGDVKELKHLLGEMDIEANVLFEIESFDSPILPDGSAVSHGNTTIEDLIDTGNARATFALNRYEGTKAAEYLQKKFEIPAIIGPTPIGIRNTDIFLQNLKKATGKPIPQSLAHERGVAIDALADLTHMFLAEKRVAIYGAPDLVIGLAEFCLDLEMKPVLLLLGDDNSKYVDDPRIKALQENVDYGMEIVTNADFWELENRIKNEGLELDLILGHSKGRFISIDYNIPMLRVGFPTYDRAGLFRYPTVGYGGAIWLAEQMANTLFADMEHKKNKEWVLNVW"},
  "source": "patent US20220170038A1",
  "key": {"[1]": {"biological_target": "MPP-processed product of the MTP-FAγ51::AnfD::Twin Strep fusion polypeptide encoded by SL30 (Azotobacter vinelandii) (UniProt P16266)", "assay": "discussion of the Strep-tactin XT pull-down of AnfD::TwinStrep (SL30), aerobic"}, "[2]": {"biological_target": "MPP-processed product of the MTP-FAγ51::AnfD::Twin Strep fusion polypeptide encoded by SL30 (Azotobacter vinelandii) (UniProt P16266)", "assay": "Strep-tactin XT pull-down of AnfD::TwinStrep from SL30-infiltrated leaves, aerobic; anti-HA Western blot of the eluate (faint but clearly visible band)"}, "[3]": {"biological_target": "MPP-processed product of the MTP-CoxIV::Twin Strep::AnfK fusion polypeptide (SN195; encoded by SL34, SL37 and SL43) (Azotobacter vinelandii) (UniProt P16267)", "assay": "discussion of the Strep-tactin XT pull-down of TwinStrep::AnfK (SL34), aerobic"}, "[4]": {"biological_target": "MPP-processed product of the MTP-CoxIV::Twin Strep::AnfK fusion polypeptide (SN195; encoded by SL34, SL37 and SL43) (Azotobacter vinelandii) (UniProt P16267)", "assay": "LC-MS and targeted MRM of the Strep-tactin XT eluate from SL34 leaves (aerobic)"}, "[5]": {"biological_target": "MPP-processed product of the MTP-CoxIV::Twin Strep::AnfK fusion polypeptide (SN195; encoded by SL34, SL37 and SL43) (Azotobacter vinelandii) (UniProt P16267)", "assay": "Strep-tactin XT pull-down of TwinStrep::AnfK from SL34-infiltrated leaves, aerobic; anti-HA Western blot of the eluate"}, "[6]": {"biological_target": "MPP-processed product of the MTP-CoxIV::Twin Strep::AnfK fusion polypeptide (SN195; encoded by SL34, SL37 and SL43) (Azotobacter vinelandii) (UniProt P16267)", "assay": "StrepTactin XT pull-down of TwinStrep::AvAnfK from leaves co-infiltrated with SL43 and SL49, anaerobic; anti-HA Western blot of the eluate"}, "[7]": {"biological_target": "MPP-processed product of the MTP-CoxIV::Twin Strep::AnfK fusion polypeptide (SN195; encoded by SL34, SL37 and SL43) (Azotobacter vinelandii) (UniProt P16267)", "assay": "LC-MS and targeted MRM of the Strep-tactin XT eluate from SL37 leaves (anaerobic)"}, "[8]": {"biological_target": "MPP-processed product of the MTP-CoxIV::Twin Strep::AnfK fusion polypeptide (SN195; encoded by SL34, SL37 and SL43) (Azotobacter vinelandii) (UniProt P16267)", "assay": "Strep-tactin XT pull-down of TwinStrep::AnfK from SL37-infiltrated leaves, anaerobic; anti-HA Western blot of the eluate"}},
  "note": "These are yes or no findings as the source states them, for the method shown. In cells and extracts the contact can be indirect. Some binding calls cover weakened binding; strength is not graded here.",
  "data": [
    {"substance": "MPP-processed product of the MTP-FAγ51::HA::AnfK fusion polypeptide (SN129; also encoded by SL26 and SL30) (from UniProt P16267 1-462) (enzyme)", "values": [
      {"measurement": "binding", "setting": "[1]", "result": "binds"},
      {"measurement": "binding", "setting": "[2]", "result": "binds"}
    ]},
    {"substance": "MPP-processed product of the MTP-FAγ51::HA::AnfD fusion polypeptide (SN161; also encoded by SL26, SL34 and SL43) (from UniProt P16266 1-518) (enzyme)", "values": [
      {"measurement": "binding", "setting": "[3]", "result": "binds"},
      {"measurement": "binding", "setting": "[4]", "result": "binds"},
      {"measurement": "binding", "setting": "[5]", "result": "binds"},
      {"measurement": "binding", "setting": "[6]", "result": "binds"}
    ]},
    {"substance": "MPP-processed product of the MTP-FAγ51::AnfD::HA fusion polypeptide (SN81; encoded by SL37) (from UniProt P16266 1-518) (enzyme)", "values": [
      {"measurement": "binding", "setting": "[7]", "result": "binds"},
      {"measurement": "binding", "setting": "[8]", "result": "binds"}
    ]}
  ]
}
